Data: paper PMC10804981
No constants are given. Whether binding was seen depends on the method and setting. Binding seen in cells or lysates may run through a third protein. Binding calls can cover weak binding; strength is not graded here.

By UniProt entry, the sequences of proteins in these tests, tags left out. Where a name states a change or a piece, a line headed by the entry shows the natural chain unless it says otherwise.
UniProt Q06AU7: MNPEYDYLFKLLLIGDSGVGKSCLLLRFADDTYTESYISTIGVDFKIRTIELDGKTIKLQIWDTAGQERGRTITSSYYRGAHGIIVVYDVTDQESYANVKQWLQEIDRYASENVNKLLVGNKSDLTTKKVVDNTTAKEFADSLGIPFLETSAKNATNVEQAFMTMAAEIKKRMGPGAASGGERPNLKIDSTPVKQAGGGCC
UniProt A0A287AWP2: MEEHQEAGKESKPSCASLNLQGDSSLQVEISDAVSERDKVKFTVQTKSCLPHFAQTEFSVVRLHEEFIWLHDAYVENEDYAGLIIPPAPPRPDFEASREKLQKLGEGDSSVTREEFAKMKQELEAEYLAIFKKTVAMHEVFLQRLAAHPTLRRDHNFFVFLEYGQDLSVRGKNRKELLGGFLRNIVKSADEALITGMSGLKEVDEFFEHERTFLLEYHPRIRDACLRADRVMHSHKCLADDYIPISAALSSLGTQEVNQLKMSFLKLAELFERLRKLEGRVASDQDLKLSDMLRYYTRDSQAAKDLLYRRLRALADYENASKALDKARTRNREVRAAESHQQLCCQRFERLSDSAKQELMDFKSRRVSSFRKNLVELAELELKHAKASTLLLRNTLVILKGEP

Biological target: HA-RAB1B (Ras-related protein Rab-1B) (pig (cDNA of PAMs)) (UniProt Q06AU7)
Test: co-IP

binding: binds
Substance: Myc-SNX32 (sorting nexin 32) (from UniProt A0A287AWP2)
